From PubChem BioAssay AID540276 (National Center for Advancing Translational Sciences (NCATS), 2011)
In all, about 300,000 compounds went through this assay and about 5,400 (1.8%) were called active. The inconclusive results got no clear call from the source; some entries with a clear call stand among them for comparison. Calls follow the shape of the full dose curve; tested in HEK293 cells. A potency beside an inconclusive call is a rough fit, not a confirmed value.
% is scaled to controls: 0 for no effect and ±100 for the full control effect; potency is read from the fitted curve at half-maximal effect.

Assay: qHTS for inhibitors of binding or entry into cells for Marburg Virus
Conditions: Marburg virus pseudotyped entry inhibition, cell reporter; activity change, negative = inhibition: at 37.8 µM (top of the series) unless noted
In the case of `CC1CCCN(C(=O)COC(=O)C2CCN(S(=O)(=O)c3c(Cl)cccc3Cl)CC2)C1` (stereo not given), the Potency is reported as inconclusive: 0.562 µM [inhibitor, single point]. With `O=C(CCS(=O)(=O)c1ccccc1)N1CCN(c2ccc(F)cc2)CC1` the Potency was inconclusive: 1.26 µM [activator, full curve]. In the case of `COc1ccc(S(=O)(=O)N2CCCCCC2)cc1C(=O)Nc1cccc(C)n1`, the Potency is reported as inconclusive: 3.55 µM [activator, single point]. In the case of `O=C1CC2(CCN(C(=O)c3cccc(Br)c3)CC2)Oc2ccccc21`, the Potency is reported as inconclusive: 17.8 µM [inhibitor, single point]. For `COc1cccc(-c2nn(C)c3sc(C(=O)NCc4ccc(C)cc4)cc23)c1`, the Potency was “inactive”. In the case of `CCNC(=S)Nc1ccc(N2CCCCC2)cc1`, the “activity change, negative = inhibition” value is reported as inactive: 0.712% [at 46.1 µM]. For `CCCCN1C2=NCCCN2c2ccccc21`, the Potency was inconclusive: 25.9 µM [inhibitor, partial curve, poor fit]. For `O=C(O)Cn1nc(-c2ccccc2)ccc1=O`, the “activity change, negative = inhibition” value was inactive: 22.5%. For `COc1cc(C(=O)Nc2ccc3c(c2)OCO3)c([N+](=O)[O-])cc1OC`, the “activity change, negative = inhibition” value was inactive: 9.84%. With `CCCC(=O)Nc1ccc(C(=O)NNC(=S)NC(=O)c2ccc(Br)o2)cc1` the “activity change, negative = inhibition” value was inactive: -25.3% [at 46.1 µM]. In the case of `O=C(CN1CCN(Cc2ccccc2)CC1)Nc1ccccc1-c1ccccc1`, the Potency is reported as inconclusive: 14.1 µM [inhibitor, partial curve, poor fit]. For `O=C(NCCCNC(=O)c1cccs1)c1cccs1`, the “activity change, negative = inhibition” value was inactive: 10.4%. For `Cc1cc(O)c(C(C)C)cc1N=Cc1ccccc1[N+](=O)[O-]`, the Potency was inconclusive: 35.5 µM [inhibitor, single point]. In the case of `Cc1ccc(C2=NN=C(NC(=O)CSc3nnc4c5ccccc5n(C)c4n3)SC2)cc1`, the Potency is reported as inconclusive: 35.5 µM [inhibitor, single point]. For `COc1cccc(-c2nnc(NC(=O)c3ccc(S(=O)(=O)N4CC(C)OC(C)C4)cc3)o2)c1` (stereo not given), the Potency was inconclusive: 2.51 µM [inhibitor, full curve]. In the case of `COc1cccc(NC(=O)c2ccco2)c1`, the “activity change, negative = inhibition” value is reported as inactive: 6.32%. In the case of `O=C(CN(c1ccccc1)S(=O)(=O)c1ccccc1)Nc1ccccc1C(=O)NCc1ccco1`, the Potency is reported as inconclusive: 15.8 µM [inhibitor, single point]. With `COc1cc(-c2nc3n(n2)C(c2ccc(F)cc2)C2=C(CCCC2=O)N3)cc(OC)c1OC` (stereo not given) the Potency was inconclusive: 9.2 µM [inhibitor, partial curve, poor fit]. In the case of `O=C(NCc1nc2ccccc2[nH]1)c1ccc(Cl)c(S(=O)(=O)N2CCCC2)c1`, the Potency is reported as “inactive”. With `CC/C(=N\NC(=S)NC(C)C)c1ccc(OC)c(OC)c1` the Potency was inconclusive: 35.5 µM [inhibitor, single point].
